Laboratory results reported in paper PMC6433232, “Targeting mitochondria in cancer therapy could provide a basis for the selective anti-cancer activity” (PLoS ONE, 2019).

System: primary acute myeloid leukemia (AML) cells obtained from patients
Experiment: Kinase inhibitor library screening with and without NSC130362, primary AML cells
Format: cell-based, Human
Settings: ratio of EC50 for inhibitor to EC50 for inhibitor/NSC130362 combination, NSC130362 10 μM

Row | SMILES | EC50 decrease, fold (Screen N 1) [fold] | EC50 decrease, fold (Screen N 2) [fold] | EC50 decrease, fold (Screen N 3) (Screen N 3) [fold]
1 | CO[C@@H]1[C@H](N(C)C(=O)c2ccccc2)C[C@H]2O[C@]1(C)n1c3ccccc3c3c4c(c5c6ccccc6n2c5c31)C(=O)NC4 [Midostaurin (PKC412)] | 1.1 | 1.0 | 25.1
2 | CNC(=O)c1ccccc1Sc1ccc2c(/C=C/c3ccccn3)n[nH]c2c1 [Axitinib (AG-013736)] | 0.476 | 1.0 | 
